Measurements published in article PMC11067302.
These are yes or no findings as the source states them, for the method shown. Binding seen in cells or lysates may run through a third protein. Binding calls can cover weak binding; strength is not graded here. Tags and fused reporters may be left off the sequences shown.

Target: T1, Flag-IL-3Rα (UniProt P26951)
T1 sequence: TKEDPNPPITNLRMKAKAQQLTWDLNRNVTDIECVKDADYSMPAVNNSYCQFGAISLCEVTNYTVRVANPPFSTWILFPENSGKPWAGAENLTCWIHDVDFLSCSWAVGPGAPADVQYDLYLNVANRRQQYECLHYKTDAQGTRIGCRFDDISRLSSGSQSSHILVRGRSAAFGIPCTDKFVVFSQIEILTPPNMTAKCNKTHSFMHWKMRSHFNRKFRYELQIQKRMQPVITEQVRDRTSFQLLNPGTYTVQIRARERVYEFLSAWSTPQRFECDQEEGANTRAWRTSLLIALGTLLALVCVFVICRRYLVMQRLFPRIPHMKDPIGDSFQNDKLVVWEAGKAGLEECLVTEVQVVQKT
Assay: co-IP; 293T cells co-transfected with HA-RNF128 (or HA-tagged truncated forms) and Flag-tagged receptor; RIPA lysate; immunoprecipitation with anti-Flag antibody on protein A agarose, 4 °C; immunoblot

## N-terminal domain of RNF128 (HA-tagged truncated form of RNF128) (domain or fragment)
  binding: binds
